# The list shows a part of the results.
# Sequences of proteins named here, by UniProt entry; tags and fusion partners are left off. A change or cut given only in a name is not applied to a line headed by its entry.
# UniProt Q7Z7L8: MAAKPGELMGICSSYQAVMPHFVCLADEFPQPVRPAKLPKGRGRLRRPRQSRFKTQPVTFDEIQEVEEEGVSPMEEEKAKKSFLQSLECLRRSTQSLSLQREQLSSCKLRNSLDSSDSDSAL
# UniProt Q8N5S9: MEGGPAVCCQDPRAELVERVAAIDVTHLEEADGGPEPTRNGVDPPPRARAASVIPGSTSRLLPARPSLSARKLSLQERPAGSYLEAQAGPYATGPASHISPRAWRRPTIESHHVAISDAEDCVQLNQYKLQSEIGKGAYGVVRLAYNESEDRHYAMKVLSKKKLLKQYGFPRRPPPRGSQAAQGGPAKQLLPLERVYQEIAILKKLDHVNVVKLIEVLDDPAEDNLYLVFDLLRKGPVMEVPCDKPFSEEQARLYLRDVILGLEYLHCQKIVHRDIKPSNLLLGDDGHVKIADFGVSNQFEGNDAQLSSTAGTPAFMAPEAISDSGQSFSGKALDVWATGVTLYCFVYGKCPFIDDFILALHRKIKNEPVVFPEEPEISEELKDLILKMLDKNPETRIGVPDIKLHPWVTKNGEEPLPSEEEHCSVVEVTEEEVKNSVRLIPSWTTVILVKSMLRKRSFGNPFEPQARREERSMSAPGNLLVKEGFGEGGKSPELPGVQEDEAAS
# UniProt Q05682: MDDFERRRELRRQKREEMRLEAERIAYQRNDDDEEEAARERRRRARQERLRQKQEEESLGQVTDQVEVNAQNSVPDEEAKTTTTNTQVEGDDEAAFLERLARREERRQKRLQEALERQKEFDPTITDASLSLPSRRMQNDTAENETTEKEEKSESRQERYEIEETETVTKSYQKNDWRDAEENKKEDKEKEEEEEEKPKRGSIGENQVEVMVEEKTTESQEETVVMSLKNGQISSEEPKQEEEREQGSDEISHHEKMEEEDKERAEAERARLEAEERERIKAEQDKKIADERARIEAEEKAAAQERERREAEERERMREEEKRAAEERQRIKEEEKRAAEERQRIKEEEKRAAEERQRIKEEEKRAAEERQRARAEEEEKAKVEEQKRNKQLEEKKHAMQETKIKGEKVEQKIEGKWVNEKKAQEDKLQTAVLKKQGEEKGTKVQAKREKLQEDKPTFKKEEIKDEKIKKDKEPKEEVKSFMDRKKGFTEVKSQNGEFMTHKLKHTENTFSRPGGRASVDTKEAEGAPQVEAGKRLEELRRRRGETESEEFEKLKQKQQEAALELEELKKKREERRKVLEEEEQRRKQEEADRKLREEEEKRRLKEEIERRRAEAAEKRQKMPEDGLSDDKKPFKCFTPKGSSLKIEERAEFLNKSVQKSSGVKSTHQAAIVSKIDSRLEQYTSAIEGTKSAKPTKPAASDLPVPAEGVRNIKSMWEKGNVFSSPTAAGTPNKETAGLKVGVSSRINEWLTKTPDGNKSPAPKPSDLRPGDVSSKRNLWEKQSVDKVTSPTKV
# UniProt Q5U649: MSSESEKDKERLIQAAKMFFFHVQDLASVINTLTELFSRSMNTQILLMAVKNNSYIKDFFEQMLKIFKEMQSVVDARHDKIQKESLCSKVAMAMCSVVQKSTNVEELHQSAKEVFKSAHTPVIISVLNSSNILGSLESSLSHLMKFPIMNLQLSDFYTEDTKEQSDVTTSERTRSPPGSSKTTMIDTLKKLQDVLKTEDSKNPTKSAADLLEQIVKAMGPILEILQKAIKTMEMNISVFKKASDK
# UniProt Q9BSF8: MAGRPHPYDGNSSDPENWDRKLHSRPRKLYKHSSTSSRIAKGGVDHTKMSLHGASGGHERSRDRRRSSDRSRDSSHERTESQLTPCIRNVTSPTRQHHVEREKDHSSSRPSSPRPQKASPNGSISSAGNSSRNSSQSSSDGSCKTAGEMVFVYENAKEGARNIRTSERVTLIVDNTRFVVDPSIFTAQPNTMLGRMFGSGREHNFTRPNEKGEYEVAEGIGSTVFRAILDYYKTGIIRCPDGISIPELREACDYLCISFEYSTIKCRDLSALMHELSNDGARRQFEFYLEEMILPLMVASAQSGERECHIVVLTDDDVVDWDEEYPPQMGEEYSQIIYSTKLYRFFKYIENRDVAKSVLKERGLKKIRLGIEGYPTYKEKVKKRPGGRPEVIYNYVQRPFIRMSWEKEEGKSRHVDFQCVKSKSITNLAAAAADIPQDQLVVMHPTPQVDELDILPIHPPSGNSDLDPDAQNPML
# UniProt Q8N1Q1: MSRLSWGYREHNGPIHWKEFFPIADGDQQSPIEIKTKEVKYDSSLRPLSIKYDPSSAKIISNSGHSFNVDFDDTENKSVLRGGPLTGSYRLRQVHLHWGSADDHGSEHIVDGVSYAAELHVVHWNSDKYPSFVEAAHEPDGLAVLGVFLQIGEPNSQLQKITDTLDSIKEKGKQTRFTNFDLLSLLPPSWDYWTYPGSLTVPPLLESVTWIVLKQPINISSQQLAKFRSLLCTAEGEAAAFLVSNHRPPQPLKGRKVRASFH
# UniProt Q06187: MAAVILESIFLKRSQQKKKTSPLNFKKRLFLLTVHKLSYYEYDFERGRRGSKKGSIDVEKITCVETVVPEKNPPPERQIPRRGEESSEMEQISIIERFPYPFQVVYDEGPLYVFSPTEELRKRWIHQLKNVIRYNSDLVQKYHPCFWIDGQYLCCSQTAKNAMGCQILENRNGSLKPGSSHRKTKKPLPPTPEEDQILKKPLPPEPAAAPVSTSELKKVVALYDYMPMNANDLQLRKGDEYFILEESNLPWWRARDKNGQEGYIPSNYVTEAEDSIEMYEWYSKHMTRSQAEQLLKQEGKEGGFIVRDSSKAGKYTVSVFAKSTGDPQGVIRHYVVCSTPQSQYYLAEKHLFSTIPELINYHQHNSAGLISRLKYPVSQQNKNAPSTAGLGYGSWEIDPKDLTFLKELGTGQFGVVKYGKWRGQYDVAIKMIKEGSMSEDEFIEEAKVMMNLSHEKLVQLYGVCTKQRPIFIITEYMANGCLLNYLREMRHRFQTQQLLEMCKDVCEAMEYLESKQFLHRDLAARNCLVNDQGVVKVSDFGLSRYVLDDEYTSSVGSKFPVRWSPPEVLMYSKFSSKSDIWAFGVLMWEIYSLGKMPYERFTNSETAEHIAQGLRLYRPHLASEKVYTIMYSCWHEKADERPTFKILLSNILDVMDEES
# UniProt Q9BUW7: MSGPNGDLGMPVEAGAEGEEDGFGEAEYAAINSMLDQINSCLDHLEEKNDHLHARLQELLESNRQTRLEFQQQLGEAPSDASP
# UniProt Q96N11, whole entry, looked up: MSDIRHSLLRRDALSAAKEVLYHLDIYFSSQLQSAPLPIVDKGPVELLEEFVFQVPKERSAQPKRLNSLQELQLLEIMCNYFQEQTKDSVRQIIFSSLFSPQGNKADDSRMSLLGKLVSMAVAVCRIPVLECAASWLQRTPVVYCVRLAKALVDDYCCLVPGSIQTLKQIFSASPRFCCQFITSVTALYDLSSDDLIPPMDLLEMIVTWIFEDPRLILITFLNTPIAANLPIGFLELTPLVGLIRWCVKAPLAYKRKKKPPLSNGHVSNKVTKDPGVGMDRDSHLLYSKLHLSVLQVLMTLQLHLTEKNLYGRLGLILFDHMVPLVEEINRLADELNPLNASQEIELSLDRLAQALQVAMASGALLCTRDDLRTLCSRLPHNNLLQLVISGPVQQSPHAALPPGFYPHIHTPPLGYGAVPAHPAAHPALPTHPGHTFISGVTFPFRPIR
# UniProt Q96NL8: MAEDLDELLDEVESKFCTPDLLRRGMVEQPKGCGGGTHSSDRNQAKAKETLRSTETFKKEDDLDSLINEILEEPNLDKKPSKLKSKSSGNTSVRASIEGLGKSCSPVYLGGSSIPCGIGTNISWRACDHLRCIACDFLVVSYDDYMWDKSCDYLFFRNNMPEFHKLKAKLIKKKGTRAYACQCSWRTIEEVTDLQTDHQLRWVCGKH
# UniProt P02748: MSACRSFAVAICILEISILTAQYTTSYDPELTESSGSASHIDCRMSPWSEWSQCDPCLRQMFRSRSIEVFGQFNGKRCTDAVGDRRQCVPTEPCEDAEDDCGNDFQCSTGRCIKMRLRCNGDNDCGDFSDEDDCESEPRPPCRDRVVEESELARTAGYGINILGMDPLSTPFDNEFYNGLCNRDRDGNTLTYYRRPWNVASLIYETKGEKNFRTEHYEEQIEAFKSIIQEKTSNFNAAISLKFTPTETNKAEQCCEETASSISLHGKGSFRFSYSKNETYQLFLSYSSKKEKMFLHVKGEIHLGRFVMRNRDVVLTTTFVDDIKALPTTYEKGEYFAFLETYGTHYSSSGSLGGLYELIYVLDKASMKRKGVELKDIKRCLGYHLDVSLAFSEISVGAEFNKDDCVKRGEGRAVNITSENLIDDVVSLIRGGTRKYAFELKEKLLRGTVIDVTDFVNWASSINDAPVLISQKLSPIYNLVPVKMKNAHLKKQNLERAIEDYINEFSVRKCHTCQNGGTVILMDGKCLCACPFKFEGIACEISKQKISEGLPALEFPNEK
# UniProt P01031, whole entry, looked up: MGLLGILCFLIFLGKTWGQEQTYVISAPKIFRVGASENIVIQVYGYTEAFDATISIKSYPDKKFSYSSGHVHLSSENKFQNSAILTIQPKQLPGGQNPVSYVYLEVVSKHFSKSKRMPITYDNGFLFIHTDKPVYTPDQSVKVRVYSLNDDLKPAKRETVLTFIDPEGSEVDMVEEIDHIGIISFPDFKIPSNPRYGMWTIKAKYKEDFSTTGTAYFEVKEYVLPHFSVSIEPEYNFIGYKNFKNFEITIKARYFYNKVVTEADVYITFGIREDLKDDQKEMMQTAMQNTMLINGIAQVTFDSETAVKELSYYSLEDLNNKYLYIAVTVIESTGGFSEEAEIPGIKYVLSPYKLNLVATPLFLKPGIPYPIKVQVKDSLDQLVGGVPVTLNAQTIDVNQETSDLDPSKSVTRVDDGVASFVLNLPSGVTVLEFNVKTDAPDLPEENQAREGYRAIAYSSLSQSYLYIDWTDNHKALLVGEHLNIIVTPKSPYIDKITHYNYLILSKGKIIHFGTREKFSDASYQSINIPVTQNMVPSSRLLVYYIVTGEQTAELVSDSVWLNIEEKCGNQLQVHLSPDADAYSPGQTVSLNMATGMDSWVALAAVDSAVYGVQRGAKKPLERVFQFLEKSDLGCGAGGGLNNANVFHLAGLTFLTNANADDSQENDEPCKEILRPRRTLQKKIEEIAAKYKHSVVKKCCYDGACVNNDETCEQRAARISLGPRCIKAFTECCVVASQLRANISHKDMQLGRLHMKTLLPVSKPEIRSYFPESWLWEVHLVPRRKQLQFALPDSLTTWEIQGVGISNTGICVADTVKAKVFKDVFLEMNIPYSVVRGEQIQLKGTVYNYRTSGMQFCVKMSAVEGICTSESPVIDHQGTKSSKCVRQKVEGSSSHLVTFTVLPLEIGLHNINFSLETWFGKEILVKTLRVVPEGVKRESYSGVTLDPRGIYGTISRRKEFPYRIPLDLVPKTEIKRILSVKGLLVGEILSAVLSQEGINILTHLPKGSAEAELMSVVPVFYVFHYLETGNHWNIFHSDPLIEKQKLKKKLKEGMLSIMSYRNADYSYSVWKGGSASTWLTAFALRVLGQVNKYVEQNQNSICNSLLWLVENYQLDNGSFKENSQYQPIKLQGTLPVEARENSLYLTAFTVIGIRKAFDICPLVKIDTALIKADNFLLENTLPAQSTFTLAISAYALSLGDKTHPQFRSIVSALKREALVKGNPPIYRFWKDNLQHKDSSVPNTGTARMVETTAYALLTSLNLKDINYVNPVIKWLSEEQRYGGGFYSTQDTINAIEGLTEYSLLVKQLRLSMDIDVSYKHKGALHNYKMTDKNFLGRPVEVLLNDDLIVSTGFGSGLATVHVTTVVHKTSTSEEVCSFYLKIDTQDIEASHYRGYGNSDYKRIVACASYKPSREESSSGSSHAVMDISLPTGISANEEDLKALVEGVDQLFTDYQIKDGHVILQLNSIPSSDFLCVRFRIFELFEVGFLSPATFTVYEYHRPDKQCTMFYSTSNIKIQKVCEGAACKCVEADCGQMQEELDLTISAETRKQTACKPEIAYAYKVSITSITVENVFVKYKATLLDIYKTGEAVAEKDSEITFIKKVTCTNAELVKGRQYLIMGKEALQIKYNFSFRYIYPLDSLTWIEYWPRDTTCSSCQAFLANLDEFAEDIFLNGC
# UniProt Q6UX52: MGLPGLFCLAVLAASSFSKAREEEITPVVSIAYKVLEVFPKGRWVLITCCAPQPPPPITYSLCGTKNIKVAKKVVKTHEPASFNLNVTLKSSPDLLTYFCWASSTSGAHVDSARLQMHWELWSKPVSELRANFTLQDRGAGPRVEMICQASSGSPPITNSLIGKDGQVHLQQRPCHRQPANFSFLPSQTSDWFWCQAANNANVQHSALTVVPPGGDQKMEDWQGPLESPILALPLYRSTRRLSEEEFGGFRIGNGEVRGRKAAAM
# UniProt P07451: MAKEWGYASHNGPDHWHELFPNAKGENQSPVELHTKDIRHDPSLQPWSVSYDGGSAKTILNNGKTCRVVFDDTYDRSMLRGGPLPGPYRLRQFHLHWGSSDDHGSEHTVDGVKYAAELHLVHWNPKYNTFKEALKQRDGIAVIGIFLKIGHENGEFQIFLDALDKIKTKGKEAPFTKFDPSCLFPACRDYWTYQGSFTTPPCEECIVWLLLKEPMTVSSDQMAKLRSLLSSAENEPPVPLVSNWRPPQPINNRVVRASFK
# Compound: CC[C@@H]1C(=O)N(C)c2cnc(Nc3ccc(C(=O)N[C@H]4CC[C@H](N5CCN(CC6CC6)CC5)CC4)cc3OC)nc2N1C(C)C [volasertib]
# Assay: log2 fold change, soluble protein after heating vs DMSO (PISA); higher = thermal stabilisation; K562 cells, 10 uM, 30 min; active = over 0.2 and 3.5 SD of the protein, either way, in both replicates (recomputed)
# Procedure, shortened: (§1)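 K562 cells at 2×10^6 cells/mL were treated for 30 min with 10 μM compound, and aliquots were heated for 3 min over 48°C-58°C before pooling. Extraction used PBS with 0.5% NP-40 at 4°C, and soluble protein was the supernatant after 21,000xg for 90 min, measured by TMTpro 16plex LC-MS/MS with channel sums equalised. Thermal stability values, relative to control samples and from duplicates, are log2 fold changes.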
row,Target,log2 fold change
1,C11orf96 (UniProt Q7Z7L8),inactive: 0
2,CAMKK1 isoform 2 (UniProt Q8N5S9),inactive: 0.664
3,CALD1 (UniProt Q05682),inactive: -0.573
4,CARD11 (UniProt Q9BXL7),inactive: -0.194
5,C12orf60 (UniProt Q5U649),inactive: -0.263
6,BTBD10 isoform 2 (UniProt Q9BSF8),inactive: 0.014

# Compound: CC[C@H](C)N1C=C(C2=C(C=C(C=C21)C3=CN=C(C=C3)N4CCNCC4)C(=O)NCC5=C(C=C(NC5=O)C)C)C
# Assay: as above
# Procedure, shortened: as §1
row,Target,log2 fold change
1,C3orf86 (UniProt P0DN24),inactive: 0.247
2,CA13 (UniProt Q8N1Q1),inactive: 0.089
3,BTK isoform 2 (UniProt Q06187),inactive: 0.022
4,C4orf46 (UniProt Q504U0),inactive: 0.265
5,C9orf16 (UniProt Q9BUW7),inactive: 0.037
6,C3AR1 (UniProt Q16581),inactive: -0.066
7,C7orf26 (UniProt Q96N11),inactive: -0.009

# Compound: CC[C@H](C)[C@@H](C(=O)N[C@@H]([C@@H](C)O)C(=O)N[C@@H](CC(C)C)C(=O)[C@]1(CO1)C)NC(=O)[C@H]([C@@H](C)CC)N(C)C(=O)C [epoxomicin]
# Assay: as above
# Procedure, shortened: as §1
row,Target,log2 fold change
1,C11orf96 (UniProt Q7Z7L8),inactive: 0.136
2,C8orf37 (UniProt Q96NL8),inactive: 0.063
3,C9 (UniProt P02748),inactive: -0.045
4,C5 (UniProt P01031),inactive: -0.25
5,CA13 (UniProt Q8N1Q1),inactive: -0.003
6,CALD1 (UniProt Q05682),inactive: -0.243
7,C11orf24 (UniProt Q96F05),inactive: -0.256
8,BTK isoform 2 (UniProt Q06187),inactive: -0.152
9,C6orf62 (UniProt Q9GZU0),inactive: -0.007
10,C17orf99 (UniProt Q6UX52),inactive: -0.251
11,CA3 (UniProt P07451),inactive: -0.215
12,CARD11 (UniProt Q9BXL7),inactive: -0.032
13,C12orf60 (UniProt Q5U649),inactive: 0.302
14,CA1 (UniProt E5RIF9),inactive: 0.132
15,C7orf26 (UniProt Q96N11),inactive: 0

# Compound: CCn1c(C(=O)N(C2CC2)C2CC2)cc2c3c(ncn3C)c(Nc3cc(C)n(C)n3)nc21
# Assay: as above
# Procedure, shortened: as §1
row,Target,log2 fold change
1,C8orf37 (UniProt Q96NL8),inactive: 0.074
2,CA13 (UniProt Q8N1Q1),inactive: 0.031
3,CALD1 (UniProt Q05682),inactive: -0.065
4,C11orf24 (UniProt Q96F05),inactive: -0.009
5,C19orf57 (UniProt Q0VDD7),inactive: -0.046
6,BTK isoform 2 (UniProt Q06187),inactive: -0.053
7,CAPNS1 (UniProt U3KPR7),inactive: 0.176
8,CABIN1 (UniProt Q9Y6J0),inactive: -0.005
9,C6orf62 (UniProt Q9GZU0),inactive: -0.051
10,C17orf99 (UniProt Q6UX52),inactive: -0.05
11,C12orf60 (UniProt Q5U649),inactive: 0.033
12,C7orf26 (UniProt Q96N11),inactive: -0.02
13,CALM1 (UniProt G3V361),inactive: 0.282

# Reference: the supplement of paper PMC10849652
